Conditions in all cases: yeast three-hybrid, YBZ-1, SC-Leu-His + 0.5 mM 3-AT, 4 days
Assay [1] addresses T1, PUM1 PUF domain R1-QFR R2-VFQ R7-NPG S863Q + R864F + Q867R + N899V + Y900F + S1079N + N1080P + E1083G (UniProt Q14671).
T1 sequence: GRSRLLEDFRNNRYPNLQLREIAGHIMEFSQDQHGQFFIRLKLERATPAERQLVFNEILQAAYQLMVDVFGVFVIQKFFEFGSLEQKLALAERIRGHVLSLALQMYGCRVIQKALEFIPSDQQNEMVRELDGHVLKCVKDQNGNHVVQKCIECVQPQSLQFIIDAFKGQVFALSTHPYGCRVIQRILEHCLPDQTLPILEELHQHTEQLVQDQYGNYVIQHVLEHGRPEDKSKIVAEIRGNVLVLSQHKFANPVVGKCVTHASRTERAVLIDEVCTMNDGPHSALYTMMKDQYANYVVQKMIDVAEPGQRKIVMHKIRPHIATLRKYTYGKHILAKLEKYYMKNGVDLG

The target in assay [2] is T2, PUM1 PUF domain R3-THE R4-TFR R7-NPG C935T + R936H + Q939E + N971T + H972F + Q975R + S1079N + N1080P + E1083G (Homo sapiens) (UniProt Q14671).
T2 sequence: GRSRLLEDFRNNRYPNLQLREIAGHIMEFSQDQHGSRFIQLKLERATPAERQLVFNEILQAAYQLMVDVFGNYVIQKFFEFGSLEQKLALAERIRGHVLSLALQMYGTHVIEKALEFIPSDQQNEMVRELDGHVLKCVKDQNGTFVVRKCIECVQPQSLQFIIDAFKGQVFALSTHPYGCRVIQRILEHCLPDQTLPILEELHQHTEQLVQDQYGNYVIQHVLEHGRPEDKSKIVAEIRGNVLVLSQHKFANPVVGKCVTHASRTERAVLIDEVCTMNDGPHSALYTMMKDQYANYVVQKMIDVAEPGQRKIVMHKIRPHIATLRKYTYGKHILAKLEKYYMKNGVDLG

The target in assay [3] is T3, PUM1 PUF domain R5-PHQ R6-SWD C1007P + R1008H + N1043S + Y1044W + Q1047D (UniProt Q14671).
T3 sequence: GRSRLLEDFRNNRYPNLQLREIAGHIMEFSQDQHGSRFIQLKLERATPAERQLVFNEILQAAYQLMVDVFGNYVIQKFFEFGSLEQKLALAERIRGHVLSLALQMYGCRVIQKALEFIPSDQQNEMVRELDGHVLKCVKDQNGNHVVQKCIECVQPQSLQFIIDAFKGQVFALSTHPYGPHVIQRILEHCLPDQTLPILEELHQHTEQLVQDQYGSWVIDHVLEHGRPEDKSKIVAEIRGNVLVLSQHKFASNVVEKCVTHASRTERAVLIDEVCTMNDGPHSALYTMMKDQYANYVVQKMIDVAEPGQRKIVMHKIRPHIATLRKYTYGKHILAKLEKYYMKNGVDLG

Assay [4] concerns the target T4, PUM1 PUF domain R3-THE R4-TFR R7-NPG C935T + R936H + Q939E + N971T + H972F + Q975R + S1079N + N1080P + E1083G (UniProt Q14671).
T4 sequence: T2 sequence

Assay [5] addresses T5, PUM1 PUF domain R3-THE R4-TFR C935T + R936H + Q939E + N971T + H972F + Q975R (UniProt Q14671).
T5 sequence: T2 sequence with N252S, P253N, G256E

In assay [6] the target is T6, PUM1 PUF domain R6-SWD R7-NPG N1043S + Y1044W + Q1047D + S1079N + N1080P + E1083G (Homo sapiens) (UniProt Q14671).
T6 sequence: T3 sequence with P180C, H181R, S252N, N253P, E256G

Substitutions are numbered along the chain they refer to. The list shows a part of the results. For some of these results: At the low end of the ranking, values are background and their order means little. For some of these results: The source does not settle which construct or isoform was used.

Regarding “GGCUAGAACUAGUGGAUCCCCCGGCGCCCGGCGGCUCGAGCCCGGGUAAGUUUGGAAAGUCUGCAUGCCGCCGGGCGCCAUGCCUGCAGGUCGACUCUAGAAAACAUG”, the binding signal (log2 enrichment (interaction score)) in assay [1] was -5.5; in assay [2], -0.98.
For “GGCUAGAACUAGUGGAUCCCCCGGCGCCCGGCGGCUCGAGCCCGGGUAAGCUCAAUAUGUCUGCAUGCCGCCGGGCGCCAUGCCUGCAGGUCGACUCUAGAAAACAUG”, in that order: -6.22 and less than -1.2.
Regarding “GGCUAGAACUAGUGGAUCCCCCGGCGCCCGGCGGCUCGAGCCCGGGUAAGCCGCAAUGGUCUGCAUGCCGCCGGGCGCCAUGCCUGCAGGUCGACUCUAGAAAACAUG”, the binding signal (log2 enrichment (interaction score)) is -6.07 in assay [1], less than -1.23 in assay [2] and less than -7.67 in assay [3].
“GGCUAGAACUAGUGGAUCCCCCGGCGCCCGGCGGCUCGAGCCCGGGUAAGUAGCCCCCGUCUGCAUGCCGCCGGGCGCCAUGCCUGCAGGUCGACUCUAGAAAACAUG”: the binding signal (log2 enrichment (interaction score)) in assay [1] is less than -6.13; in assay [4], -2.8.
Regarding “GGCUAGAACUAGUGGAUCCCCCGGCGCCCGGCGGCUCGAGCCCGGGUAAGUGGCAAAAGUCUGCAUGCCGCCGGGCGCCAUGCCUGCAGGUCGACUCUAGAAAACAUG”, the binding signal (log2 enrichment (interaction score)) in assay [1] was -5.94; in assay [2], -0.64; in assay [3], -8.04.
Regarding “GGCUAGAACUAGUGGAUCCCCCGGCGCCCGGCGGCUCGAGCCCGGGUAAGUUGGGAUGGUCUGCAUGCCGCCGGGCGCCAUGCCUGCAGGUCGACUCUAGAAAACAUG”, the binding signal (log2 enrichment (interaction score)) in assay [1] is -7.07; in assay [2] it was -1.68.
Take “GGCUAGAACUAGUGGAUCCCCCGGCGCCCGGCGGCUCGAGCCCGGGUAAGUGGAAGGAGUCUGCAUGCCGCCGGGCGCCAUGCCUGCAGGUCGACUCUAGAAAACAUG”: the binding signal (log2 enrichment (interaction score)) in assay [1] is -5.69; in assay [2] it was -1.81; in assay [3], less than -7.4.
“GGCUAGAACUAGUGGAUCCCCCGGCGCCCGGCGGCUCGAGCCCGGGUAAGUUUGCGUUGUCUGCAUGCCGCCGGGCGCCAUGCCUGCAGGUCGACUCUAGAAAACAUG”: the binding signal (log2 enrichment (interaction score)) in assay [1] is less than -5.59; in assay [2] it was -1.87.
Turning to “GGCUAGAACUAGUGGAUCCCCCGGCGCCCGGCGGCUCGAGCCCGGGUAAGUUGCAUGCGUCUGCAUGCCGCCGGGCGCCAUGCCUGCAGGUCGACUCUAGAAAACAUG”, the binding signal (log2 enrichment (interaction score)) was less than -6.97 in assay [1] and less than -1.32 in assay [2].
For the sequence “GGCUAGAACUAGUGGAUCCCCCGGCGCCCGGCGGCUCGAGCCCGGGUAAGUUUUAGACGUCUGCAUGCCGCCGGGCGCCAUGCCUGCAGGUCGACUCUAGAAAACAUG”, the binding signal (log2 enrichment (interaction score)) in assay [1] was -2.81; in assay [2], -1.48.
In the case of “GGCUAGAACUAGUGGAUCCCCCGGCGCCCGGCGGCUCGAGCCCGGGUAAGUUUUAAAAGUCUGCAUGCCGCCGGGCGCCAUGCCUGCAGGUCGACUCUAGAAAACAUG”, the binding signal (log2 enrichment (interaction score)) in assay [1] was -5.46; in assay [2] it was less than -1.89; in assay [3], less than -7.35.
For “GGCUAGAACUAGUGGAUCCCCCGGCGCCCGGCGGCUCGAGCCCGGGUAAGGAUAUAUUGUCUGCAUGCCGCCGGGCGCCAUGCCUGCAGGUCGACUCUAGAAAACAUG”, the results for the binding signal (log2 enrichment (interaction score)) in assay [1] and in assay [4] were -5.64 and -2.19, respectively.
As to “GGCUAGAACUAGUGGAUCCCCCGGCGCCCGGCGGCUCGAGCCCGGGUAAGUGCACACAGUCUGCAUGCCGCCGGGCGCCAUGCCUGCAGGUCGACUCUAGAAAACAUG”, the binding signal (log2 enrichment (interaction score)) in assay [1] was -7.04; in assay [2] it was -1.51; in assay [3] it was less than -8.6.
Turning to “GGCUAGAACUAGUGGAUCCCCCGGCGCCCGGCGGCUCGAGCCCGGGUAAGGUUUGGAAGUCUGCAUGCCGCCGGGCGCCAUGCCUGCAGGUCGACUCUAGAAAACAUG”, the binding signal (log2 enrichment (interaction score)) was -5.28 in assay [1] and -1.87 in assay [2].
Take “GGCUAGAACUAGUGGAUCCCCCGGCGCCCGGCGGCUCGAGCCCGGGUAAGGUUACAAAGUCUGCAUGCCGCCGGGCGCCAUGCCUGCAGGUCGACUCUAGAAAACAUG”: the binding signal (log2 enrichment (interaction score)) was less than -6.63 in assay [1] and -2.46 in assay [4].
For “GGCUAGAACUAGUGGAUCCCCCGGCGCCCGGCGGCUCGAGCCCGGGUAAGGUUACUUGGUCUGCAUGCCGCCGGGCGCCAUGCCUGCAGGUCGACUCUAGAAAACAUG”, in that order: -5.54 and -2.39.
Consider “GGCUAGAACUAGUGGAUCCCCCGGCGCCCGGCGGCUCGAGCCCGGGUAAGCGGAAAAAGUCUGCAUGCCGCCGGGCGCCAUGCCUGCAGGUCGACUCUAGAAAACAUG”, for which the binding signal (log2 enrichment (interaction score)) was -5.1 in assay [1], -6.67 in assay [5] and -1.47 in assay [6].
Consider “GGCUAGAACUAGUGGAUCCCCCGGCGCCCGGCGGCUCGAGCCCGGGUAAGAUUAAAAUGUCUGCAUGCCGCCGGGCGCCAUGCCUGCAGGUCGACUCUAGAAAACAUG”, for which the values for the binding signal (log2 enrichment (interaction score)) in assay [1] and in assay [4] were less than -5.81 and -2.03, respectively.
With “GGCUAGAACUAGUGGAUCCCCCGGCGCCCGGCGGCUCGAGCCCGGGUAAGUUUGGACAGUCUGCAUGCCGCCGGGCGCCAUGCCUGCAGGUCGACUCUAGAAAACAUG”, the binding signal (log2 enrichment (interaction score)) in assay [1] was -5.71; in assay [2], less than -1.14.
In the case of “GGCUAGAACUAGUGGAUCCCCCGGCGCCCGGCGGCUCGAGCCCGGGUAAGUUCAAACCGUCUGCAUGCCGCCGGGCGCCAUGCCUGCAGGUCGACUCUAGAAAACAUG”, the binding signal (log2 enrichment (interaction score)) in assay [1] is -4.92; in assay [2] it was less than -1.09; in assay [3], -7.68; in assay [6] it was 0.16.
With “GGCUAGAACUAGUGGAUCCCCCGGCGCCCGGCGGCUCGAGCCCGGGUAAGCUGAAAUCGUCUGCAUGCCGCCGGGCGCCAUGCCUGCAGGUCGACUCUAGAAAACAUG”, the binding signal (log2 enrichment (interaction score)) is -5.18 in assay [1], less than -0.28 in assay [2] and -8.37 in assay [3].
Turning to “GGCUAGAACUAGUGGAUCCCCCGGCGCCCGGCGGCUCGAGCCCGGGUAAGUGUUAGACGUCUGCAUGCCGCCGGGCGCCAUGCCUGCAGGUCGACUCUAGAAAACAUG”, the binding signal (log2 enrichment (interaction score)) is less than -5.59 in assay [1] and less than -2.48 in assay [4].
Consider “GGCUAGAACUAGUGGAUCCCCCGGCGCCCGGCGGCUCGAGCCCGGGUAAGUGGGAGUAGUCUGCAUGCCGCCGGGCGCCAUGCCUGCAGGUCGACUCUAGAAAACAUG”, for which the binding signal (log2 enrichment (interaction score)) in assay [1] is -6.35; in assay [2] it was less than -0.46; in assay [3], less than -7.3.
Consider “GGCUAGAACUAGUGGAUCCCCCGGCGCCCGGCGGCUCGAGCCCGGGUAAGUACAGAUAGUCUGCAUGCCGCCGGGCGCCAUGCCUGCAGGUCGACUCUAGAAAACAUG”, for which the figures for the binding signal (log2 enrichment (interaction score)) in assay [1] and in assay [3] were -4.61 and less than -8.09, respectively.

The record behind these values is publication PMC8384837.
